Consider one molecule from paper PMC10885370.

By UniProt entry, the sequences of proteins in these tests, tags left out.
UniProt P54578: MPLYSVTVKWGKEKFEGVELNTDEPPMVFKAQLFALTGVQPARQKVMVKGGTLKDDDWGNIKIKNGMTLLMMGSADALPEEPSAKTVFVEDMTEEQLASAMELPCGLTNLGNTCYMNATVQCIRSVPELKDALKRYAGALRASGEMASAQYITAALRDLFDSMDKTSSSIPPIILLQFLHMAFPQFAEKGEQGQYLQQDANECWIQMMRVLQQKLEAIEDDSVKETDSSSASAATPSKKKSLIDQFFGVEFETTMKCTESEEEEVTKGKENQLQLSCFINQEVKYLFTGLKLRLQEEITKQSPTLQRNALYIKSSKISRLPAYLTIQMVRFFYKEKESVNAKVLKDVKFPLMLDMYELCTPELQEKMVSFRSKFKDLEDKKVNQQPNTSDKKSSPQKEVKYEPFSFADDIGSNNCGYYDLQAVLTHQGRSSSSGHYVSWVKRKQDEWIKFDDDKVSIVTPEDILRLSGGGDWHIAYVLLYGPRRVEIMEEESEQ

In the experiment the target is HA-tagged ubiquitin-specific protease 14 (USP14), stably overexpressed in HN4 cells (human) (UniProt P54578). The experiment is described as follows: affinity purification with mass spectrometry; lysates of HN4 cells stably overexpressing HA-tagged USP14 immunoprecipitated with anti-HA, anti-mouse IgG as negative control; gel electrophoresis, silver staining, in-gel trypsin digestion, LC-MS/MS, MASCOT search.

These are yes or no findings as the source states them, for the method shown. In cells and extracts the contact can be indirect. These calls come from enrichment with a bait or labelling near it, and not all partners need be listed.

B1: phosphofructokinase-1 liver type (PFKL), endogenous in HN4 cells (enzyme, UniProt P17858 1-780)
chain: MAAVDLEKLRASGAGKAIGVLTSGGDAQGMNAAVRAVTRMGIYVGAKVFLIYEGYEGLVEGGENIKQANWLSVSNIIQLGGTIIGSARCKAFTTREGRRAAAYNLVQHGITNLCVIGGDGSLTGANIFRSEWGSLLEELVAEGKISETTARTYSHLNIAGLVGSIDNDFCGTDMTIGTDSALHRIMEVIDAITTTAQSHQRTFVLEVMGRHCGYLALVSALASGADWLFIPEAPPEDGWENFMCERLGETRSRGSRLNIIIIAEGAIDRNGKPISSSYVKDLVVQRLGFDTRVTVLGHVQRGGTPSAFDRILSSKMGMEAVMALLEATPDTPACVVTLSGNQSVRLPLMECVQMTKEVQKAMDDKRFDEATQLRGGSFENNWNIYKLLAHQKPPKEKSNFSLAILNVGAPAAGMNAAVRSAVRTGISHGHTVYVVHDGFEGLAKGQVQEVGWHDVAGWLGRGGSMLGTKRTLPKGQLESIVENIRIYGIHALLVVGGFEAYEGVLQLVEARGRYEELCIVMCVIPATISNNVPGTDFSLGSDTAVNAAMESCDRIKQSASGTKRRVFIVETMGGYCGYLATVTGIAVGADAAYVFEDPFNIHDLKVNVEHMTEKMKTDIQRGLVLRNEKCHDYYTTEFLYNLYSSEGKGVFDCRTNVLGHLQQGGAPTPFDRNYGTKLGVKAMLWLSEKLREVYRKGRVFANAPDSACVIGLKKKAVAFSPVTELKKDTDFEHRMPREQWWLSLRLMLKMLAQYRISMAAYVSGELEHVTRRTLSMDKGF
In the case of B1, the binding entry is on record as “binds”.
